{"source": "PubChem BioAssay AID1259254 – NCATS | 2017", "assay": "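Finding genes that stop cells copying their DNA twice in one cycle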 (primary screen)", "cell system": "human HCT116 colorectal cancer cells", "knock-down reagent": "single siRNA against human genes", "timing": "3 days", "detection": "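Nuclei stained with Hoechst and imaged; cell-cycle phase assigned by DNA content; G2 share scaled per plate, non-targeting siRNA 0%, GMNN siRNA 100%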", "reading the numbers": "G2 robust z-score: higher = more G2 cells, more excess DNA replication", "active means": "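Active siRNAs have a G2 robust z of 5 or more median absolute deviations over the median, which in these data means about 38% or higher of GMNN control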", "note": "The deposit covers about 59,000 reagents; this is a random part of them. About 1,550 of them (2.6%) count as active. 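G2 share is only a proxy for re-replication; each gene was hit by three separate siRNAs, and active genes were retested.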 Entries without a mark were called inactive. Reagents against one gene are numbered here. Not all columns of the deposit are shown. Not given: the amount of reagent."}
{"gene symbol": "FKTN", "siRNA no.": 1, "G2 robust z-score": 0.108}
{"gene symbol": "FKTN", "siRNA no.": 2, "G2 robust z-score": -0.452}
{"gene symbol": "FKTN", "siRNA no.": 3, "G2 robust z-score": 0.283}
{"gene symbol": "SLC2A3", "siRNA no.": 1, "G2 robust z-score": -0.679}
{"gene symbol": "SLC2A3", "siRNA no.": 2, "G2 robust z-score": 1.42}
{"gene symbol": "SLC2A3", "siRNA no.": 3, "G2 robust z-score": -0.67}
{"gene symbol": "RPL21P68", "siRNA no.": 1, "G2 robust z-score": 4.89}
{"gene symbol": "RPL21P68", "siRNA no.": 2, "G2 robust z-score": 0.991}
{"gene symbol": "RPL21P68", "siRNA no.": 3, "G2 robust z-score": 1.47}
{"gene symbol": "IL23A", "siRNA no.": 1, "G2 robust z-score": -1.4}
{"gene symbol": "IL23A", "siRNA no.": 2, "G2 robust z-score": -0.141}
{"gene symbol": "IL23A", "siRNA no.": 3, "G2 robust z-score": -0.94}
{"gene symbol": "CDC14C", "siRNA no.": 1, "G2 robust z-score": -1.08}
{"gene symbol": "CDC14C", "siRNA no.": 2, "G2 robust z-score": -1.29}
{"gene symbol": "CDC14C", "siRNA no.": 3, "G2 robust z-score": 1.26}
{"gene symbol": "MYO7A", "siRNA no.": 1, "G2 robust z-score": -0.464}
{"gene symbol": "MYO7A", "siRNA no.": 2, "G2 robust z-score": -1.02}
{"gene symbol": "MYO7A", "siRNA no.": 3, "G2 robust z-score": 4.74}
{"gene symbol": "DHFR2", "siRNA no.": 1, "G2 robust z-score": -0.274}
{"gene symbol": "DHFR2", "siRNA no.": 2, "G2 robust z-score": -0.987}
{"gene symbol": "DHFR2", "siRNA no.": 3, "G2 robust z-score": -0.453}
{"gene symbol": "TENT5D", "siRNA no.": 1, "G2 robust z-score": -0.31}
{"gene symbol": "TENT5D", "siRNA no.": 2, "G2 robust z-score": -0.908}
{"gene symbol": "TENT5D", "siRNA no.": 3, "G2 robust z-score": -0.852}
